Measured values reported in PubChem BioAssay AID1671190 (National Center for Advancing Translational Sciences (NCATS), 2021).
Out of some 580,000 compounds screened, about 6,100 (1.1%) were called active. This list was built around the results that the source calls inconclusive (neither active nor inactive); the mix of calls is not that of the screen. The call rests on the fitted dose curve; in most records, active means well fitted inhibition curve with a large enough effect; inconclusive means small, poorly fitted or top-dose-only effect, or another doubt; inactive means no such curve, though single readings can be large or run the other way. A potency beside an inconclusive call is a rough fit, not a confirmed value.
On the % scale 0 is the no-effect control and ±100 the full control effect; potency means the concentration at half of the fitted maximal effect.

Sequences of proteins named here, by UniProt entry; tags and fusion partners are left off. A change or cut given only in a name is not applied to a line headed by its entry.
UniProt P18054: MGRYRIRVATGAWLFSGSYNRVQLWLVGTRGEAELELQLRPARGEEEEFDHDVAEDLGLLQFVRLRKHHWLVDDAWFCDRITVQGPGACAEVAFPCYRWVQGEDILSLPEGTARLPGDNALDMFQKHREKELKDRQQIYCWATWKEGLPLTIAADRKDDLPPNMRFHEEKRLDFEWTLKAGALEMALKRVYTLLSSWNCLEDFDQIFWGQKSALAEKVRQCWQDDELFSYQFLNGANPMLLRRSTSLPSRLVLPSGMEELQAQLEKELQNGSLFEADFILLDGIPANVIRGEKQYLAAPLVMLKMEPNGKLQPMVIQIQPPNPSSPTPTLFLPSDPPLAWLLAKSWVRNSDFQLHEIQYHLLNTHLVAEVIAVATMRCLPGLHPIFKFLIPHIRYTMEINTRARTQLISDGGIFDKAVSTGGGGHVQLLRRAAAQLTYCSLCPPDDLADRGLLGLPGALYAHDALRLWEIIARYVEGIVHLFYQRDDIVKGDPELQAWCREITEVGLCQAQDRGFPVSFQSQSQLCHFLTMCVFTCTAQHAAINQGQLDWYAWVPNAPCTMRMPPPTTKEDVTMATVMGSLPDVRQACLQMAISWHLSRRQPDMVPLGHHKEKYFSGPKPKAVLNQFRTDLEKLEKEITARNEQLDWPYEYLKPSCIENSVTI

The compounds below were run against Polyunsaturated fatty acid lipoxygenase ALOX12 (Homo sapiens) (UniProt P18054) (assay: Primary qHTS assay for inhibitors of human arachidonate 12S-lipoxygenase (ALOX12): Round 2). Details: purified 12hLO, xylenol orange hydroperoxide absorbance; activity change, negative = inhibition: at 108 µM (top of the series) unless noted.
Summary of the method: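 Hydroperoxide product was detected by ferrous iron/xylenol orange as the 573 to 405 nm absorbance ratio. Arachidonic acid at 40 uM (final) was turned over for 30 min at room temperature by 150 nM human 12hLO, pH 7.0 Hepes buffer, after 15 min compound preincubation.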
`O=C(CCN1C(=O)/C(=C/c2ccco2)SC1=S)Nc1ccc(C(=O)O)c(O)c1` was tested, and the Potency was inconclusive: 31.6 µM [inhibitor, partial curve]. In the case of `COCCn1nnnc1C(c1ccc2ncccc2c1)N1CCN(c2ccccc2F)CC1` (stereo unspecified), the Potency is reported as inconclusive: 3.98 µM [inhibitor, full curve, poor fit]. With `CN(C)CCN1CCN(C2CN(Cc3cn(Cc4cccc(C(F)(F)F)c4)nn3)S(=O)(=O)C2)CC1` (stereo unspecified) the Potency was inconclusive: 6.31 µM [inhibitor, full curve, poor fit]. With `O=C(CCc1ccccc1)NC1(C(F)(F)F)C(=O)Nc2c1c(=O)[nH]c(=O)n2CCc1ccccc1` (stereo unspecified) the “activity change, negative = inhibition” value was inactive: 6.56%. In the case of `CCOc1ccccc1CNC(=O)Cn1nc(C)c2nn(-c3ccc(Cl)cc3)c(C)c2c1=O`, the Potency is reported as inconclusive: 126 µM [inhibitor, partial curve, poor fit]. `CCOC(=O)C1=C(CN(Cc2ccco2)C2CCCC2)NC(=O)NC1c1ccc(C)cc1` (stereo unspecified) was tested, and the Potency was inconclusive: 39.8 µM [inhibitor, partial curve, poor fit]. In the case of `CC1(C)CC[C@]2(C(=O)n3ccnc3)CC[C@]3(C)[C@H](C(=O)C=C4[C@@]5(C)C=C(C#N)C(=O)C(C)(C)[C@@H]5CC[C@]43C)[C@@H]2C1`, the Potency is reported as inconclusive: 50.1 µM [inhibitor, partial curve, poor fit]. In the case of `Nc1nc(N)c2[nH]cnc2n1`, the “activity change, negative = inhibition” value is reported as inactive: 7.42%. `COc1ccc(CNc2ccnc(-c3ccccc3Cl)n2)c(OC)c1` was tested, and the Potency was inconclusive: 8.91 µM [inhibitor, full curve, poor fit]. For `CC(=O)Nc1cccc(-c2csc(Nc3ccc(O)cc3C)n2)c1`, the Potency was inconclusive: 35.5 µM [inhibitor, partial curve, poor fit]. `CC[n+]1c(C)cc2c(sc3ccccc32)c1C` was tested, and the Potency was inconclusive: 44.7 µM [inhibitor, partial curve, poor fit]. For `COc1cc(/C=C/C(=O)Oc2ccc3c(c2)OCO3)cc2c1OCCO2`, the “activity change, negative = inhibition” value was inactive: 11.5%. For `Cc1nc(NC(=O)C2CC(=O)N(c3n[nH]c4cccc(F)c34)C2)sc1C` (stereo unspecified), the Potency was inconclusive: 79.4 µM [inhibitor, partial curve, poor fit]. In the case of `COc1ccc(CN2C(=O)COC[C@@H]2[C@H](O)c2ccc(NC(=O)c3ccc(C(C)(C)C)cc3)cc2)cc1`, the “activity change, negative = inhibition” value is reported as inactive: -19.5%. `O=C(NCc1nc(-c2ccncc2)n[nH]1)[C@H]1CCC[C@H](O)C1` was tested, and the Potency was inconclusive: 10 µM [inhibitor, full curve, poor fit]. In the case of `COc1ccccc1-c1cnc(C(O)c2cc(Cl)cc(Cl)c2)[nH]1` (stereo unspecified), the “activity change, negative = inhibition” value is reported as inactive: -6.3%. `O=C(O)c1ccc(CN2CCOCC2)o1` was tested, and the Potency was inconclusive: 31.6 µM [inhibitor, partial curve, poor fit]. With `CC1CCCCC1NCC(=O)Nc1ccccc1-c1ccccc1` (stereo unspecified) the Potency was inconclusive: 0.1 µM [inhibitor, full curve, poor fit]. With `Cc1ccc(Sc2ccc(/C=N/O)cc2[N+](=O)[O-])cc1` the Potency was inconclusive: 39.8 µM [inhibitor, partial curve, poor fit]. With `CN(C)c1nc2n(c(=S)n1)CCS2` the Potency was inconclusive: 44.7 µM [inhibitor, partial curve, poor fit]. In the case of `O=S1(=O)C=CC(N(Cc2ccccc2)Cc2cccc(F)c2)C1` (stereo unspecified), the Potency is reported as inconclusive: 22.4 µM [inhibitor, full curve, poor fit]. `Cc1cccc(OCC(=O)NCc2ccc3c(c2)CCN3C(=O)c2ccccc2)c1` was tested, and the “activity change, negative = inhibition” value was inactive: -1.6%. `O=C(C=C(Sc1ccccc1)Sc1ccccc1)C(F)(F)F` was tested, and the Potency was active: 35.5 µM. With `COC(=O)/C=C/c1ccc(OS(=O)(=O)c2ccc3c(c2)OCCCO3)c(OC)c1` the “activity change, negative = inhibition” value was inactive: 6.5%. `CNC(=O)N1CCC(C2CCN(C(=O)C3CCCCCC3)C2)CC1` (stereo unspecified) was tested, and the “activity change, negative = inhibition” value was inactive: 39.8%. In the case of `O=C(c1ccc(Cl)cc1)N1CCC(O)(CSc2ccc(Cl)cc2)CC1`, the Potency is reported as inconclusive: 50.1 µM [inhibitor, partial curve, poor fit]. In the case of `O=C(N/C(=C\c1ccco1)C(=O)N1CCCC1)c1ccccc1`, the Potency is reported as inconclusive: 7.94 µM [inhibitor, full curve, poor fit]. `Cc1ccc(/C=C/c2nc(N)nc(-c3ccccc3O)n2)cc1` was tested, and the “activity change, negative = inhibition” value was inactive: -22.6%. With `CC(=O)N1CCN(C(=O)c2ccc(OC3CCN(Cc4ccccn4)CC3)cc2)CC1` the Potency was inconclusive: 35.5 µM [inhibitor, single point]. For `COc1ccc(-n2c(=O)c(-c3cccs3)nc3cnc(N4CCOCC4)nc32)cc1`, the Potency was inconclusive: 89.1 µM [inhibitor, partial curve, poor fit]. With `Cc1cc(=S)c2cccc(C)c2[nH]1` the “activity change, negative = inhibition” value was inactive: -14.6%. `COc1ccc(-c2cnc(NCc3ccc(C)cc3)n2C)cc1` was tested, and the Potency was inconclusive: 14.1 µM [inhibitor, full curve]. In the case of `Cc1cccc(NC(=S)NCc2ccc(F)cc2)c1C`, the Potency is reported as inconclusive: 50.1 µM [inhibitor, partial curve, poor fit]. With `N=c1n(CCN2CCCC2)c2ccccc2n1CC(O)c1ccc(Cl)c(Cl)c1` (stereo unspecified) the Potency was inconclusive: 22.4 µM [inhibitor, partial curve, poor fit]. With `COc1ccccc1CN1CCN(Cc2ccco2)CC1` the Potency was inconclusive: 0.251 µM [inhibitor, full curve, poor fit]. For `CCN1CCN(CC(=O)Nc2ccc(C(C)=O)cc2)CC1`, the Potency was inconclusive: 3.16 µM [inhibitor, full curve, poor fit]. In the case of `Cc1ccccc1CNC(=O)c1cnc2ccccc2n1`, the Potency is reported as active: 4.47 µM. `COc1cc(CNC2CCCc3ccccc32)cc(OC)c1` (stereo unspecified) was tested, and the Potency was inconclusive: 1.26 µM [inhibitor, full curve, poor fit]. For `COc1ccc(Nc2nc(-c3ccc(NC(C)=O)cc3)cs2)cc1`, the Potency was inconclusive: 70.8 µM [inhibitor, partial curve, poor fit]. For `CCc1nnc(NC(=O)CSc2nnc(-c3ccc(S(=O)(=O)N(CC)CC)cc3)n2CC)s1`, the Potency was inconclusive: 39.8 µM [inhibitor, partial curve, poor fit]. For `CCN(CC(=O)Nc1ccccc1C(F)(F)F)C(=O)/C=C/c1ccc(Cl)c([N+](=O)[O-])c1`, the Potency was inconclusive: 89.1 µM [inhibitor, partial curve, poor fit].
